Experimental data as given in article doi:10.1101/826875.
These are yes or no findings as the source states them, for the method shown. Binding seen in cells or lysates may run through a third protein. Some entries that bind do so weakly or less than the wild type.

Chains of the proteins cited; added tags and fusions are not shown.
UniProt P46938: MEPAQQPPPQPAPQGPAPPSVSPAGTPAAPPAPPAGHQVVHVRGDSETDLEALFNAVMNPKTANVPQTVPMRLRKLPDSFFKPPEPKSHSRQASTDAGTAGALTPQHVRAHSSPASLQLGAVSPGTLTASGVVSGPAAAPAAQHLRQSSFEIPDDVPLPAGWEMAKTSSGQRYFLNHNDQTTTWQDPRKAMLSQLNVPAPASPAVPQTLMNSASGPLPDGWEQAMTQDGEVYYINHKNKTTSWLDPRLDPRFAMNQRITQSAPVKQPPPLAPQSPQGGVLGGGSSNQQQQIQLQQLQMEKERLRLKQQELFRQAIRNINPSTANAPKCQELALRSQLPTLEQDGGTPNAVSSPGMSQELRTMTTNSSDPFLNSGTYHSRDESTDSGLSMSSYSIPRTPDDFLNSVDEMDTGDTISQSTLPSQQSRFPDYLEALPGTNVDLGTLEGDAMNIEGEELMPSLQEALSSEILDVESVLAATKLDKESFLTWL
UniProt Q62296: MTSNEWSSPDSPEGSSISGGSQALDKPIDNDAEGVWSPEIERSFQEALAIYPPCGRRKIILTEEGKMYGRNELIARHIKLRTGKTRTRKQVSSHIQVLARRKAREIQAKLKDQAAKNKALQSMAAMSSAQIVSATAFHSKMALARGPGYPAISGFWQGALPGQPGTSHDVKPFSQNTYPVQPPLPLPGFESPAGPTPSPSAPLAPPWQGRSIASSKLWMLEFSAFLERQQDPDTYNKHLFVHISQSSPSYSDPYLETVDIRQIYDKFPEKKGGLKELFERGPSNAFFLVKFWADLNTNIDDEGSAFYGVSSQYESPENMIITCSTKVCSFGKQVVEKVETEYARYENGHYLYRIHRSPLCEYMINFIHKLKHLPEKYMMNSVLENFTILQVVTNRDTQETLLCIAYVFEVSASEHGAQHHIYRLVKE
UniProt Q61312: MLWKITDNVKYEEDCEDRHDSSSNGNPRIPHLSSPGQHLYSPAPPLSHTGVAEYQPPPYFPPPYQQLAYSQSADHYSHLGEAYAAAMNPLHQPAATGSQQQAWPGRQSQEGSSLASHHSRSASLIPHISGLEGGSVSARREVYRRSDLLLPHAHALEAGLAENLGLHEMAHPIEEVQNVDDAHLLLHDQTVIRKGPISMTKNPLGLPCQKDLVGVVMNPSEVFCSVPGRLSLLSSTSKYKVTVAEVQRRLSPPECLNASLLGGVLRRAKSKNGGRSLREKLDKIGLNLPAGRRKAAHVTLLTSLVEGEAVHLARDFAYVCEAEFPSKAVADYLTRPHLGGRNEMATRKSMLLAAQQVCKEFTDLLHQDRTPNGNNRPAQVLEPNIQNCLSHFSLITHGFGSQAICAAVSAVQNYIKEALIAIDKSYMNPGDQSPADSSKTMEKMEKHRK

Columns and labels:
Test in all cases: co-IP
Flag-YAP1 = Flag-YAP1 (UniProt P46938)
Myc-TEAD4 = Myc-TEAD4 (UniProt Q62296)
GFP-AP-2γ = GFP-AP-2γ (UniProt Q61312)

Substance | binding (Flag-YAP1) | binding (Myc-TEAD4) | binding (GFP-AP-2γ)
GFP-AP-2γ (from UniProt Q61312 1-449) | binds | binds | –
Myc-TEAD4 (from UniProt Q62296 1-427) | binds | – | binds
Flag-YAP1 (from UniProt P46938 1-488) | – | binds | binds
